These are yes or no findings as the source states them, for the method shown. In cells and extracts the contact can be indirect. Some binding calls cover weakened binding; strength is not graded here.
How the values were obtained:
[1] = biological target: LgBiT-MR (mineralocorticoid receptor with LgBiT at the N-terminus) (UniProt P08235); test: condition: only with Spi (10^-5 M) added to Dex (10^-6 M); split reporter; NanoBiT in intact HEK293T cells, Dex (10^-6 M) together with Spi (10^-5 M) added after baseline, luminescence over 60 min, normalised to baseline and given as fold versus solvent
[2] = biological target: LgBiT-MR (mineralocorticoid receptor with LgBiT at the N-terminus) (UniProt P08235); test: split reporter; NanoBiT in intact HEK293T cells, Dex (10^-6 M) added after baseline, luminescence over 60 min, normalised to baseline and given as fold versus solvent
[3] = biological target: glucocorticoid receptor (GR), endogenous in myeloma cells (human (endogenous in MM1.S and OPM-2)) (UniProt P04150); test: co-IP; endogenous GR immunoprecipitated with anti-GR G5 from MM1.S or OPM-2 lysates (NP-40 lysis buffer: 50 mM Tris-HCl pH 8.0, 150 mM NaCl, 1% NP-40; 4 °C), blot with anti-MR 6G1; cells treated 30 min with solvent, Dex (10^-6 M), Spi (10^-5 M) or Dex-Spi
[4] = biological target: LgBiT-MR (mineralocorticoid receptor with LgBiT at the N-terminus) (UniProt P08235); test: split reporter; NanoBiT in intact HEK293T cells, Spi (10^-5 M) alone added after baseline, luminescence over 60 min, normalised to baseline and given as fold versus solvent

Chains of the proteins cited; added tags and fusions are not shown.
UniProt P08235: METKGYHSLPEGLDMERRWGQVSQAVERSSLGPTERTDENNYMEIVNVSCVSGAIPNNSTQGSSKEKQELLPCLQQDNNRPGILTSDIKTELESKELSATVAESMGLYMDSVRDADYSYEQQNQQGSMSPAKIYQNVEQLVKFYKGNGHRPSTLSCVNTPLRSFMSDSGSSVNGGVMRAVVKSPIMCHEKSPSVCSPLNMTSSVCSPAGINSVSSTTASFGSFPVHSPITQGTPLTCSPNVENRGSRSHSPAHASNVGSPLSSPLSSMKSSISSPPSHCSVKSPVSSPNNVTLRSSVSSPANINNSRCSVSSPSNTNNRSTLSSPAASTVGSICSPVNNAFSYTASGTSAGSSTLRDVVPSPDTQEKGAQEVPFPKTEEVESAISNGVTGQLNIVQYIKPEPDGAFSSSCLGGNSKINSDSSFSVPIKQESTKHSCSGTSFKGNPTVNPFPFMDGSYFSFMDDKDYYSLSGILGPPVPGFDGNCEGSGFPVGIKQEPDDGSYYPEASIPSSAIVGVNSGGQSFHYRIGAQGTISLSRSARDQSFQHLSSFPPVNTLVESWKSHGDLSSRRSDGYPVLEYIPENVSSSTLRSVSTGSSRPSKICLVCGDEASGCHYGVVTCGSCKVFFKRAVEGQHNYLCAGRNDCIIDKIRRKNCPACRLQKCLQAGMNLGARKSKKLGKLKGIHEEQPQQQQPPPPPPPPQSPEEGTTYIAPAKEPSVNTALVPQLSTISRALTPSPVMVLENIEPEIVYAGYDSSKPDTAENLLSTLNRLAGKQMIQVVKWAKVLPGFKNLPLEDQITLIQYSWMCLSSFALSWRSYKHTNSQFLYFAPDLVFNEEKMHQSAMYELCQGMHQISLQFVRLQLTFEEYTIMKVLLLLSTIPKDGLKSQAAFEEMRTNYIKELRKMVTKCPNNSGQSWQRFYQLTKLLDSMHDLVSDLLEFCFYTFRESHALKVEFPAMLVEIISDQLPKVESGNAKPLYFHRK

Molecule: MR-SmBiT (mineralocorticoid receptor with SmBiT at the C-terminus) (from UniProt P08235 1-984)
- binding [1]: no binding
- binding [2]: binds

Molecule: mineralocorticoid receptor (MR), endogenous in myeloma cells (from UniProt P08235 1-984)
- binding [3]: binds

B1: GR-SmBiT (glucocorticoid receptor with SmBiT at the C-terminus) (receptor, UniProt P04150 1-777, looked up)
chain: MDSKESLTPGREENPSSVLAQERGDVMDFYKTLRGGATVKVSASSPSLAVASQSDSKQRRLLVDFPKGSVSNAQQPDLSKAVSLSMGLYMGETETKVMGNDLGFPQQGQISLSSGETDLKLLEESIANLNRSTSVPENPKSSASTAVSAAPTEKEFPKTHSDVSSEQQHLKGQTGTNGGNVKLYTTDQSTFDILQDLEFSSGSPGKETNESPWRSDLLIDENCLLSPLAGEDDSFLLEGNSNEDCKPLILPDTKPKIKDNGDLVLSSPSNVTLPQVKTEKEDFIELCTPGVIKQEKLGTVYCQASFPGANIIGNKMSAISVHGVSTSGGQMYHYDMNTASLSQQQDQKPIFNVIPPIPVGSENWNRCQGSGDDNLTSLGTLNFPGRTVFSNGYSSPSMRPDVSSPPSSSSTATTGPPPKLCLVCSDEASGCHYGVLTCGSCKVFFKRAVEGQHNYLCAGRNDCIIDKIRRKNCPACRYRKCLQAGMNLEARKTKKKIKGIQQATTGVSQETSENPGNKTIVPATLPQLTPTLVSLLEVIEPEVLYAGYDSSVPDSTWRIMTTLNMLGGRQVIAAVKWAKAIPGFRNLHLDDQMTLLQYSWMFLMAFALGWRSYRQSSANLLCFAPDLIINEQRMTLPCMYDQCKHMLYVSSELHRLQVSYEEYLCMKTLLLLSSVPKDGLKSQELFDEIRMTYIKELGKAIVKREGNSSQNWQRFYQLTKLLDSMHEVVENLLNYCFQTFLDKTMSIEFPEMLAEIITNQIPKYSNGNIKKLLFHQK
notes: glucocorticoid receptor (GR, NR3C1); NanoBiT fusion; also called pGR-SmBiT; source: HEK293T, transfected (calcium phosphate), in intact cells; not shown: SmBiT, C-terminal, kept
- binding [4]: no binding (condition: Spi (10^-5 M) alone, without Dex)

Reference: PMC10425521, “Crosstalk between glucocorticoid and mineralocorticoid receptors boosts glucocorticoid-induced killing of multiple myeloma cells” (Cellular and Molecular Life Sciences: CMLS, 2023)
